The results in this text go back to PMC7819943, “Rice protein-binding microarrays: a tool to detect cis-acting elements near promoter regions in rice”.

Amino acid sequences for entries named in this document (tags omitted).
UniProt Q0JBA9, entry or part of it: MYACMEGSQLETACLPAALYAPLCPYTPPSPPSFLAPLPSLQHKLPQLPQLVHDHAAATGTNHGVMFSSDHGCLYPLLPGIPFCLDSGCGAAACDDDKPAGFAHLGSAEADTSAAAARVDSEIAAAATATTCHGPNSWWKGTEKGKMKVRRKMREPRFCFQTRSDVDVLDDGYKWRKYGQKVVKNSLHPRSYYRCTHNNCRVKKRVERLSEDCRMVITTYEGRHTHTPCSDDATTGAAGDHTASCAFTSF

This is one part of the list.

The assay addresses OsWRKY34 (Oryza sativa, UniProt Q0JBA9 1-250). Put plainly: protein-binding microarray (RPBM); PBS, 2% BSA, 51.3 ng/ul salmon testes DNA, 50 uM zinc acetate, 200 nM TF, 25 C, 1 h; high values mean tight binding. To be noted: protein: recombinant; tags: N-terminal polyhistidine and DsRed monomer fusion (pET32a); label: CyDye5-dUTP incorporated in the synthesized complementary strand; 3' TTTTT single-stranded linker to array surface; dsDNA, one strand shown. The method in brief: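 Per-feature fluorescence intensity (arbitrary units), read on an Axon 4000B scanner, is the binding signal. Transcription factors carrying an N-terminal polyhistidine tag and DsRed fusion were expressed in E. coli BL21-CodonPlus and purified on Ni–NTA. A custom Agilent array, made double-stranded by primer extension with Cy5-dUTP and blocked with 2% BSA, was incubated with 200 nM protein in PBS, 2% BSA, salmon testes DNA and 50 µM zinc acetate at 25 °C for 1 h and then washed.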
For “GCCTCAACATGTCGCCACCCGTTGTTTCCACGGCCTTTTCCGGAGTCACCTAGTGCAG”, the binding signal was 11100 fluorescence intensity (a.u.). The figure for “AGGCTGAGCGAATGTTTTGTTTGTTTTGCTCGTCAATTCTCGGAGTCACCTAGTGCAG” is 8790 fluorescence intensity (a.u.); for “TCTAGTCACCTTCTCACATGGTATCCCGACCGCAATAGACCGGAGTCACCTAGTGCAG” it is 8460 fluorescence intensity (a.u.); for “GTTCCTTTGCTTGTTCTTGGCAAACTAAGCTTGCTTGCTACGGAGTCACCTAGTGCAG” it is 10600 fluorescence intensity (a.u.). Consider “CCATTTTCTTCTTCCCTTTTTTACTTTCTCTCTCTTGCATCGGAGTCACCTAGTGCAG”, for which the binding signal was 8970 fluorescence intensity (a.u.). The figure for “CACCGGCACGAGCTCGCCGCGCTTTCCATTATTAGCCGCTCGGAGTCACCTAGTGCAG” is 8450 fluorescence intensity (a.u.).

On to “CCGCCGCCCTCGCCGCTGCCACGCCGCCGCCGCCGCCCTTCGGAGTCACCTAGTGCAG”, for which the binding signal was 8780 fluorescence intensity (a.u.). “AGAAGTCTAGCTGTCTCGAGGCCACACAACTCACCAGTTTCGGAGTCACCTAGTGCAG”: the binding signal is 8610 fluorescence intensity (a.u.). As to “AACTAGTATATCTCTCGCTTCTCTCTATCATTCTCCGTTGCGGAGTCACCTAGTGCAG”, the binding signal was 10100 fluorescence intensity (a.u.). The figure for “GATGTCCCTGTCTTGCTTCTCATCACCTGCACCCACCACACGGAGTCACCTAGTGCAG” is 9130 fluorescence intensity (a.u.); for “CATTATCGTCGTCGTCGTCGTCGTAGTCATGTCGTGGGGCCGGAGTCACCTAGTGCAG” it is 8180 fluorescence intensity (a.u.).

For the sequence “CTAGTTGGTCTAGGTTCGAAATCTCACCCCTTTTATTTATCGGAGTCACCTAGTGCAG”, the binding signal was 8900 fluorescence intensity (a.u.). The value for “ATTAAACATATGATCTTTTTGTGTGTTTTGAGTGTTAGTTCGGAGTCACCTAGTGCAG” was 9160 fluorescence intensity (a.u.). The value for “CTTACAGTTTTATTACTCGTGCTGACGTAGATAATCTTATCGGAGTCACCTAGTGCAG” was 9900 fluorescence intensity (a.u.). With “CTCTTCTTCGTTATGGTCCTTATGGTCAATCTGAATTAAACGGAGTCACCTAGTGCAG”, the binding signal is 9480 fluorescence intensity (a.u.). Take “GGGTGCTAATTCGGTTATTCCTTTCTTAATTGCTACTTCCCGGAGTCACCTAGTGCAG”: the binding signal is 8140 fluorescence intensity (a.u.). The figure for “TCTCCTATCTTTGCTCCCGTGCTCACGCCGCCCCGCCCTTCGGAGTCACCTAGTGCAG” is 8620 fluorescence intensity (a.u.). The figure for “GCCGCGGCGGAGCTCCCGTTTCCGTTGCCGTCTCCGGCGCCGGAGTCACCTAGTGCAG” is 11000 fluorescence intensity (a.u.); for “TCTTCTTCCTCACTCGCTGCCCACTCATTGGGAAAAATCCCGGAGTCACCTAGTGCAG” it is 10300 fluorescence intensity (a.u.). As for “ATCCTTGTCTTTTGTCTGTTTTGATATCGTACTACGTAGACGGAGTCACCTAGTGCAG”, the binding signal is 11200 fluorescence intensity (a.u.). Turning to “ATCCATACTACATCATCCATATACCATCATCCTATATTTTCGGAGTCACCTAGTGCAG”, the binding signal was 9020 fluorescence intensity (a.u.). As to “TCCAATGTTCCCTAATCAATTTCATCTACTTTTTTAATACCGGAGTCACCTAGTGCAG”, the binding signal was 8140 fluorescence intensity (a.u.). Take “GTTATGGCCTTATTTTTAAGTGAACTATCCTGTCAATGTCCGGAGTCACCTAGTGCAG”: the binding signal is 8170 fluorescence intensity (a.u.).
